# According to the supplement of paper PMC4604168 (melanoma cell lines):
# The other results are listed elsewhere or left out. Repeats are few or missing, and single values can be far off.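 The apoptosis fraction was the count of cleaved-PARP antibody-stained nuclei relative to all DNA-stained nuclei, imaged in 1,536-well plates. Screening doses were set so most cells survived, and baseline and induced cleaved-PARP levels vary greatly across cell lines.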
# Test system: WM3526
# Test: cleaved PARP positive nuclei fraction relative to DMSO control; melanoma cells; higher = more apoptosis
# Settings: library dose: low library concentration; 72 h
row,SMILES,cleaved PARP positive nuclei fraction [%]
1,"Nc1cccc2c1CN(C1CCC(=O)NC1=O)C2=O (stereo not drawn) [lenalidomide] + CN(C)S(=O)(=O)c1ccc2c(c1)/C(=C/c1cc3c([nH]1)CCCC3)C(=O)N2 [SU6656] (first compound 1 µM, partner dose 0.4 µM)",59.9
2,"C[C@]1(c2nc3c(C(N)=O)cccc3[nH]2)CCCN1 [Veliparib] + Cc1ccc(NC(=O)c2cccc(N(C)C)c2)cc1NC(=O)c1ccc(O)cc1 [ZM336372] (first compound 1.4 µM, partner dose 2 µM)",111
3,"C=CCn1c(=O)c2cnc(Nc3ccc(N4CCN(C)CC4)cc3)nc2n1-c1cccc(C(C)(C)O)n1 + NC(=O)Nc1cc(-c2cccc(F)c2)sc1C(=O)N[C@H]1CCCNC1 [AZD7762] (first compound 0.02 µM, partner dose 0.02 µM)",134
4,"COCC[n+]1c2c(n(Cc3cnccn3)c1C)C(=O)c1ccccc1C2=O + COc1cc(N2CCC(N3CCN(C)CC3)CC2)ccc1Nc1ncc(Cl)c(Nc2ccccc2S(=O)(=O)C(C)C)n1 [NVP-TAE684] (first compound 0.0004 µM, partner dose 0.08 µM)",38.4
5,"Cn1nnc2c(C(N)=O)ncn2c1=O [temozolomide] + COc1cc2ncnc(Nc3ccc(Oc4ccccc4)cc3)c2cc1OC [SrcI1] (first compound 2 µM, partner dose 2 µM)",65.9
6,"CC(C)(C)c1cnc(CSc2cnc(NC(=O)C3CCNCC3)s2)o1 + COC(=O)c1sccc1S(=O)(=O)Nc1ccc(Nc2ccccc2)cc1OC [GSK0660] (first compound 0.01 µM, partner dose 1 µM)",68.7
7,"CC(=O)c1c(C)c2cnc(Nc3ccc(N4CCNCC4)cn3)nc2n(C2CCCC2)c1=O [palbociclib] + Clc1ccc(Nc2nnc(Cc3ccncc3)c3ccccc23)cc1 [vatalanib] (first compound 0.04 µM, partner dose 2 µM)",60.9
8,"Cc1ccc(NC(=O)c2cccc(N(C)C)c2)cc1NC(=O)c1ccc(O)cc1 + Cc1cc(N2CCOCC2)cc2[nH]c(-c3c(NC[C@@H](O)c4cccc(Cl)c4)cc[nH]c3=O)nc12 [BMS536924] (first compound 2 µM, partner dose 0.2 µM)",45.6
9,"O=C(CCCCCCC(=O)Nc1ccccc1)NO [vorinostat] + CC1(C)NC(=O)N(c2ccc([N+](=O)[O-])c(C(F)(F)F)c2)C1=O [nilutamide] (first compound 0.08 µM, partner dose 1 µM)",60.9
10,"CC(=O)c1c(C)c2cnc(Nc3ccc(N4CCNCC4)cn3)nc2n(C2CCCC2)c1=O [palbociclib] + CCc1ccc(CCOc2ccc(CC3SC(=O)NC3=O)cc2)nc1 [pioglitazone] (first compound 0.04 µM, partner dose 2 µM)",106
11,"Clc1ccc(Nc2nnc(Cc3ccncc3)c3ccccc23)cc1 [vatalanib] + Cn1nnc2c(C(N)=O)ncn2c1=O [temozolomide] (first compound 2 µM, partner dose 2 µM)",22.8
12,"C#Cc1cccc(Nc2ncnc3cc(OCCOC)c(OCCOC)cc23)c1 [erlotinib] + OCCn1cc(-c2cnc3nnn(Cc4ccc5ncccc5c4)c3n2)cn1 [PF04217903] (first compound 0.8 µM, partner dose 1 µM)",56.7
13,"Cn1cncc1[C@@](N)(c1ccc(Cl)cc1)c1ccc2c(c1)c(-c1cccc(Cl)c1)cc(=O)n2C [tipifarnib] + Oc1cc(-c2nc(-c3ccccc3)[nH]c2-c2ccncc2)ccc1Cl [L779450] (first compound 0.01 µM, partner dose 0.2 µM)",84.4
14,"Cn1c(Nc2ccc(C(F)(F)F)cc2)nc2cc(Oc3ccnc(-c4ncc(C(F)(F)F)[nH]4)c3)ccc21 + N#Cc1c(O)c2c(-c3ccc(-c4ccccc4O)cc3)csc2[nH]c1=O [A769662] (first compound 0.08 µM, partner dose 2 µM)",132
15,"O=C(CCCCCCC(=O)Nc1ccccc1)NO [vorinostat] + O=S(=O)(c1ccccc1)N(CC(F)(F)F)c1ccc(C(O)(C(F)(F)F)C(F)(F)F)cc1 [T0901317] (first compound 0.08 µM, partner dose 1.4 µM)",140
16,"C[C@]1(c2nc3c(C(N)=O)cccc3[nH]2)CCCN1 [Veliparib] + COc1ccc(-c2ccc3c(N4CCOCC4)nc(N4C[C@@H](C)O[C@@H](C)C4)nc3n2)cc1CO [KU0063794] (first compound 1.4 µM, partner dose 0.02 µM)",76
17,"Cn1c(Nc2ccc(C(F)(F)F)cc2)nc2cc(Oc3ccnc(-c4ncc(C(F)(F)F)[nH]4)c3)ccc21 + O=C1NC(=O)/C(=C/c2ccc(-c3ccc(F)cc3O)o2)S1 [AS252424] (first compound 0.08 µM, partner dose 1 µM)",89.5

# 2 entries from above, as tab-separated lines:
row	SMILES	cleaved PARP positive nuclei fraction [%]
1	Nc1cccc2c1CN(C1CCC(=O)NC1=O)C2=O (stereo not drawn) [lenalidomide] + CN(C)S(=O)(=O)c1ccc2c(c1)/C(=C/c1cc3c([nH]1)CCCC3)C(=O)N2 [SU6656] (first compound 1 µM, partner dose 0.4 µM)	59.9
17	Cn1c(Nc2ccc(C(F)(F)F)cc2)nc2cc(Oc3ccnc(-c4ncc(C(F)(F)F)[nH]4)c3)ccc21 + O=C1NC(=O)/C(=C/c2ccc(-c3ccc(F)cc3O)o2)S1 [AS252424] (first compound 0.08 µM, partner dose 1 µM)	89.5

# The list continues:

row,SMILES,cleaved PARP positive nuclei fraction [%]
1,"Cc1cc(N2CCOCC2)cc2[nH]c(-c3c(NC[C@@H](O)c4cccc(Cl)c4)cc[nH]c3=O)nc12 + CCN(CC)CCCCNc1ncc2cc(-c3cc(OC)cc(OC)c3)c(NC(=O)NC(C)(C)C)nc2n1 [PD173074] (first compound 0.2 µM, partner dose 0.1 µM)",48.5
2,"Cc1nc(Nc2ncc(C(=O)Nc3c(C)cccc3Cl)s2)cc(N2CCN(CCO)CC2)n1 [dasatanib] + O=C(O)C(=O)Nc1sc2c(c1C(=O)O)CCNC2 [TCS401] (first compound 0.004 µM, partner dose 1.66667 µM)",74
3,"Cc1ccc(NC(=O)c2cccc(N(C)C)c2)cc1NC(=O)c1ccc(O)cc1 + N#Cc1c(O)c2c(-c3ccc(-c4ccccc4O)cc3)csc2[nH]c1=O [A769662] (first compound 2 µM, partner dose 2 µM)",44
4,"C#Cc1cccc(Nc2ncnc3cc(OCCOC)c(OCCOC)cc23)c1 [erlotinib] + N#Cc1c(O)c2c(-c3ccc(-c4ccccc4O)cc3)csc2[nH]c1=O [A769662] (first compound 0.8 µM, partner dose 2 µM)",34.9
5,"Nc1cccc2c1CN(C1CCC(=O)NC1=O)C2=O (stereo not drawn) [lenalidomide] + NC(=O)Nc1cc(-c2cccc(F)c2)sc1C(=O)N[C@H]1CCCNC1 [AZD7762] (first compound 1 µM, partner dose 0.02 µM)",61.3
6,"Nc1cccc2c1CN(C1CCC(=O)NC1=O)C2=O (stereo not drawn) [lenalidomide] + COc1cc(N2CCC(N3CCN(C)CC3)CC2)ccc1Nc1ncc(Cl)c(Nc2ccccc2S(=O)(=O)C(C)C)n1 [NVP-TAE684] (first compound 1 µM, partner dose 0.08 µM)",84.2
7,"NC(=O)Nc1cc(-c2cccc(F)c2)sc1C(=O)N[C@H]1CCCNC1 + O=c1cc(-c2cccc3c2Sc2ccccc2S3)oc(N2CCOCC2)c1 [KU55933] (first compound 0.02 µM, partner dose 1 µM)",124
8,"Cc1cc(N2CCOCC2)cc2[nH]c(-c3c(NC[C@@H](O)c4cccc(Cl)c4)cc[nH]c3=O)nc12 + Oc1nc(-c2ccc(C(F)(F)F)cc2)nc2c1CSCC2 [XAV939] (first compound 0.2 µM, partner dose 2 µM)",75
9,"Nc1cccc2c1CN(C1CCC(=O)NC1=O)C2=O (stereo not drawn) [lenalidomide] + C=CCn1c(=O)c2cnc(Nc3ccc(N4CCN(C)CC4)cc3)nc2n1-c1cccc(C(C)(C)O)n1 [MK1775] (first compound 1 µM, partner dose 0.02 µM)",108
10,"OCc1c[nH]c2ccccc12 [Indole-3-carbinol] + COc1cc(N2CCC(N3CCN(C)CC3)CC2)ccc1Nc1ncc(Cl)c(Nc2ccccc2S(=O)(=O)C(C)C)n1 [NVP-TAE684] (first compound 0.8 µM, partner dose 0.08 µM)",83
11,"Clc1ccc(Nc2nnc(Cc3ccncc3)c3ccccc23)cc1 [vatalanib] + C=CCn1c(=O)c2cnc(Nc3ccc(N4CCN(C)CC4)cc3)nc2n1-c1cccc(C(C)(C)O)n1 [MK1775] (first compound 2 µM, partner dose 0.02 µM)",54.2
12,"CO[C@@H]1[C@H](N(C)C(=O)c2ccccc2)C[C@H]2O[C@]1(C)n1c3ccccc3c3c4c(c5c6ccccc6n2c5c31)C(=O)NC4 [Midostaurin] + COc1ccc2c(c1)CCC1C2CCC2(C)C(NCCCCCCN3C(=O)C=CC3=O)CCC12 [U73122] (first compound 0.08 µM, partner dose 0.4 µM)",81.3
13,"CC(C)(C)c1cnc(CSc2cnc(NC(=O)C3CCNCC3)s2)o1 + N#Cc1c(O)c2c(-c3ccc(-c4ccccc4O)cc3)csc2[nH]c1=O [A769662] (first compound 0.01 µM, partner dose 2 µM)",181
14,"Cn1nnc2c(C(N)=O)ncn2c1=O [temozolomide] + O=c1cc(-c2cccc3c2Sc2ccccc2S3)oc(N2CCOCC2)c1 [KU55933] (first compound 2 µM, partner dose 1 µM)",207
15,"C[C@@H]1CCN(C(=O)CC#N)C[C@@H]1N(C)c1ncnc2[nH]ccc12 + CCCCCCCCCCCC1=C(O)C(=O)C=C(O)C1=O [Embelin] (first compound 1 µM, partner dose 1.2 µM)",64
16,"C=CCn1c(=O)c2cnc(Nc3ccc(N4CCN(C)CC4)cc3)nc2n1-c1cccc(C(C)(C)O)n1 + C[C@@H]1CCN(C(=O)CC#N)C[C@@H]1N(C)c1ncnc2[nH]ccc12 [CP690550] (first compound 0.02 µM, partner dose 1 µM)",113
